Source: PubChem BioAssay AID2685 (National Center for Advancing Translational Sciences (NCATS), 2010)
This is one part of the list. The main result of the screen is listed elsewhere. These columns were measured beside it and carry no call. Compounds called inactive in the main read-out are mostly missing here. Words in brackets tell the shape of the fitted curve; partial curves, single points and poor fits give uncertain potencies.

Experiment: qHTS Assay for Lipid Storage Modulators in Drosophila S3 Cells;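 on cell number change: cells counted by Cell Tracker Red CMTPX staining in the red channel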
Settings: BODIPY lipid droplet fluorescence, 18-24 h; for cell number change: measured here: cell count max response, cells fed with added oleic acid
How it was run: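 Laser-scanning cytometry quantifies lipid droplet accumulation (500–530 nm total intensity; droplet/cell object ratio) in oleic acid-fed (400 uM added) Drosophila S3 cells treated with a concentration series. 20 uM Triacsin C defined 100% inhibition.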

[1] = measured here: lipid fluorescence (Fed channel) AC50, cells fed with added oleic acid
[2] = measured here: cell number channel AC50, cells fed with added oleic acid

Structure (SMILES): CCOc1ccc(NS(=O)(=O)c2ccc(NS(C)(=O)=O)cc2)cc1
- cell number change: -15.7%

Structure (SMILES): Clc1cnc(N/N=C/c2cccs2)c(Cl)c1
- cell number change: -8.09%
- AC50 [1]: 0.58 µM [rising, partial curve, poor fit]

Structure (SMILES): O=c1[nH]c(=O)n(Cc2ccco2)c2c1C(C(F)(F)F)(C(F)(F)F)N=C(c1ccco1)N2
- cell number change: 43.9%
- AC50 [2]: 2.59 µM [rising, full curve]

Structure (SMILES): CC(OC(=O)Cn1cnc2c1c(=O)n(C)c(=O)n2C)C(=O)c1ccccc1 (centres undefined)
- cell number change: -29.5%
- AC50 [1]: 29.1 µM [falling, single point]

Structure (SMILES): O=C(Nc1ccccc1)c1sc(Cl)nc1-c1ccccc1
- cell number change: 72.6%
- AC50 [2]: 0.116 µM [rising, full curve]
- AC50 [1]: 29.1 µM [rising, single point]

Structure (SMILES): O=C(CC1CCCCC1)NCC1CCCO1 (centres undefined)
- cell number change: -4.6%
- AC50 [2]: 0.146 µM [falling, full curve, poor fit]
- AC50 [1]: 0.731 µM [falling, full curve]

Structure (SMILES): CC1CC(=O)N(CC(=O)Nc2ccc(F)cc2F)c2ccccc2S1(=O)=O (centres undefined)
- cell number change: -18.7%

Structure (SMILES): CCSc1nnc(CCNC(=O)OC(C)(C)C)o1
- cell number change: -29.5%
- AC50 [1]: 20.6 µM [falling, partial curve]

Structure (SMILES): C=CCN1C(=O)/C(=C\c2ccco2)C(C(=O)OC)=C1C
- cell number change: -12.2%
- AC50 [1]: 0.184 µM [falling, full curve, poor fit]

Structure (SMILES): CC(NC(=O)COc1ccc(Br)cc1)C1CCCO1 (centres undefined)
- cell number change: -3.2%
- AC50 [1]: 1.16 µM [rising, full curve]

Structure (SMILES): Cn1c(SCC(=O)N2CCCC2)nnc1-c1ccc2c(c1)OCO2
- AC50 [1]: 29.1 µM [rising, single point]

Structure (SMILES): CCN(Cc1ccccc1)C(=O)COC(=O)CNS(=O)(=O)c1ccc(C)cc1
- cell number change: -12.4%
- AC50 [1]: 23.1 µM [falling, single point]

Structure (SMILES): O=C(NCCCNC(=O)c1ccco1)c1ccc(Cl)cc1
- cell number change: -3.91%

Structure (SMILES): Cc1cccc(NC(=O)C2CCCN(C(=O)Nc3ccc(F)cc3)C2)c1 (centres undefined)
- cell number change: 25.6%
- AC50 [1]: 11.6 µM [rising, partial curve]

Structure (SMILES): Cn1cc(C(=O)N/N=C/c2cccc([N+](=O)[O-])c2)c2ccccc21
- AC50 [1]: 1.84 µM [rising, partial curve, poor fit]

Structure (SMILES): CCNC(=S)Nc1ccc(OC(F)(F)F)cc1
- cell number change: 12.8%
- AC50 [1]: 0.259 µM [falling, single point]

Structure (SMILES): COc1ccc(-n2nc([N+](=O)[O-])c(=NCc3ccco3)n2O)cc1
- cell number change: -30.8%
- AC50 [2]: 0.82 µM [falling, full curve]
- AC50 [1]: 1.64 µM [falling, partial curve]

Structure (SMILES): CCCCNC(=O)CCn1c(=S)[nH]c2cc3c(cc2c1=O)OCO3
- cell number change: -7.18%

Structure (SMILES): Cc1nc(=S)n(-c2ccccc2)[nH]1
- cell number change: -93.6%
- AC50 [2]: 29.1 µM [falling, single point]

Structure (SMILES): O=C(NNC(=O)c1ccc(F)cc1)c1ccncc1
- cell number change: 8.76%
- AC50 [1]: 0.58 µM [rising, single point]

Structure (SMILES): Cc1csc(=O)n1CCC(=O)OCc1nnc(-c2ccc(Cl)cc2)o1
- AC50 [1]: 6.51 µM [falling, single point]

Structure (SMILES): COc1ccc(NC2=CC(c3ccc(F)cc3)N(c3ccc(OC)cc3)C2=O)cc1 (centres undefined)
- cell number change: -0.249%

Structure (SMILES): O=C(C1=C(O)C(=O)N(CCCn2ccnc2)C1c1cccc(Br)c1)c1ccco1 (centres undefined)
- cell number change: 10.8%
- AC50 [1]: 29.1 µM [rising, partial curve, poor fit]

Structure (SMILES): O=C(NNC(=O)c1c(O)c2ccccc2[nH]c1=O)c1ccccc1Br
- cell number change: -3.42%
- AC50 [1]: 6.51 µM [falling, single point]

Structure (SMILES): Cc1onc(-c2ccccc2)c1C(=O)NCc1ccccc1F
- cell number change: -3.95%
- AC50 [1]: 5.62 µM [rising, single point]

Structure (SMILES): CC(=O)CCc1c(C)[nH]c2ccc(NC(C)=O)cc2c1=O
- cell number change: -23.2%
- AC50 [1]: 0.103 µM [falling, full curve, poor fit]

Structure (SMILES): COc1ccc(/C=N/NC(=O)Nc2cccc3nsnc23)cc1
- cell number change: -34.2%
- AC50 [2]: 0.206 µM [falling, full curve]

Structure (SMILES): Cc1cc(/C=C2\SC(=S)N(Cc3ccco3)C2=O)c(C)n1-c1cccnc1
- AC50 [1]: 20.6 µM [falling, partial curve]

Structure (SMILES): Cc1ccc(S(=O)(=O)N2CCCCC2)c(C)c1NS(C)(=O)=O
- cell number change: 11.7%

Structure (SMILES): CN(CC(=O)Nc1ccccc1Cl)C(=O)Cn1cnc2ccc(Cl)cc2c1=O
- cell number change: 6.45%
- AC50 [1]: 0.00411 µM [falling, full curve, poor fit]

Structure (SMILES): Cc1cc(C(=O)C(C)Cl)c(C)n1Cc1ccco1 (centres undefined)
- cell number change: -21.6%

Structure (SMILES): CCN(c1ccccc1)S(=O)(=O)c1ccc(OC)c(NC(=O)Cc2ccc(OC)c(OC)c2)c1
- cell number change: -7.01%
- AC50 [1]: 1.84 µM [rising, partial curve]

Structure (SMILES): COc1cc(/C=N/NC(=O)c2ccc(COc3cc(C)ccc3C(C)C)cc2)cc(OC)c1O
- cell number change: -38.3%
- AC50 [2]: 18.4 µM [falling, partial curve, poor fit]
- AC50 [1]: 0.326 µM [falling, full curve]

Structure (SMILES): O=C(Nc1cccc(-c2nc3ccccc3s2)c1)c1cc(-n2cnnc2)ccc1Cl
- cell number change: -21.9%
- AC50 [1]: 3.26 µM [falling, full curve, poor fit]

Structure (SMILES): CCOc1ccc(-n2c(SCC(=O)Nc3nccs3)nc3c(c2=O)SCC3)cc1
- AC50 [2]: 0.206 µM [rising, full curve, poor fit]
- AC50 [1]: 0.291 µM [rising, partial curve, poor fit]

Structure (SMILES): Cc1cc(=O)n2c3ccccc3n(CC(O)CN3CCN(Cc4ccccc4)CC3)c2c1C#N (centres undefined)
- cell number change: -16.4%

Structure (SMILES): CC1CC1C(=O)OCC(=O)Nc1ccc2[nH]c(=O)[nH]c2c1 (centres undefined)
- cell number change: -9.23%

Structure (SMILES): CCOC(=O)C1=C(O)C(=O)N(c2ccc(S(N)(=O)=O)cc2)C1c1ccc(OC)cc1OC (centres undefined)
- cell number change: 4.63%
- AC50 [1]: 0.411 µM [falling, full curve, poor fit]

Structure (SMILES): O=C(CC1NC(=O)NC1=O)Nc1ccccc1 (centres undefined)
- cell number change: -47.1%
- AC50 [2]: 0.231 µM [falling, full curve, poor fit]
- AC50 [1]: 0.184 µM [falling, full curve]

Structure (SMILES): Cc1cccc(N2CCN(S(=O)(=O)c3ccc(-c4ccc(=O)[nH]n4)o3)CC2)c1C
- cell number change: 31%
- AC50 [2]: 29.1 µM [rising, single point]
- AC50 [1]: 18.4 µM [rising, single point]

Structure (SMILES): Cc1cc(C)c2c(c1)c1nnc(SCCN3CCCCC3)nc1n2C
- cell number change: -4.17%

Structure (SMILES): OCC(O)C1OC(Nc2ccc(Cl)cc2)C(O)C1O (centres undefined)
- cell number change: -35.5%

Structure (SMILES): CCCC1(CCC)NC(=O)N(CC(=O)Nc2ccccc2OC)C1=O
- cell number change: -6.57%
- AC50 [1]: 0.00461 µM [falling, full curve, poor fit]

Structure (SMILES): COCCN(CCOC)C(=O)c1ccc(NS(=O)(=O)c2ccc3[nH]c(=O)[nH]c3c2)cc1
- cell number change: 2.31%

Structure (SMILES): CCCCc1ccc(NC(=S)NCc2ccc(OC)cc2)cc1
- cell number change: 10.5%
- AC50 [2]: 6.51 µM [falling, single point]
- AC50 [1]: 18.4 µM [falling, single point]

Structure (SMILES): COc1ccc(CNC(=O)CCCOc2cc(=O)n(C)c3ccccc23)cc1
- cell number change: 122%
- AC50 [2]: 16.4 µM [rising, single point]

Structure (SMILES): CC(C)C(=O)Nc1cccc(C(=O)Nc2ccc(S(=O)(=O)N3CCOCC3)cc2)c1
- AC50 [1]: 29.1 µM [falling, single point]

Structure (SMILES): CSc1ccc(-c2nc(CSCC(=O)NC3CC3)c(C)o2)cc1
- cell number change: 22.4%
- AC50 [1]: 23.1 µM [rising, single point]

Structure (SMILES): O=C(c1cnc(Cl)c(Cl)c1)N1CCC(Cc2ccccc2)CC1
- cell number change: 80.3%

Structure (SMILES): O=C(NCc1ccco1)c1ccccc1Nc1ccc(F)cc1
- AC50 [1]: 6.51 µM [falling, single point]

Structure (SMILES): O=C(NCc1cccc(Cl)c1)c1cccc(S(=O)(=O)N2CCCC2)c1
- cell number change: 0.242%
- AC50 [1]: 25.9 µM [falling, single point]

Structure (SMILES): COc1ccc(S(=O)(=O)N2CCCCCC2)cc1
- cell number change: -7.3%
- AC50 [1]: 29.1 µM [falling, single point]

Structure (SMILES): CCOC(=O)c1sc(NC(=O)CSc2nnnn2-c2ccc(C)c(C)c2)nc1C
- cell number change: -20.6%
- AC50 [1]: 7.31 µM [falling, partial curve, poor fit]

Structure (SMILES): CCOCCn1c(SCc2cccc(C)c2)nc2c1c(=O)[nH]c(=O)n2C
- cell number change: 20.8%
- AC50 [1]: 16.4 µM [rising, single point]

Structure (SMILES): Cc1ccc(CN(C)C(=O)COC(=O)CSc2ccc([N+](=O)[O-])cc2)cc1
- cell number change: -25%
- AC50 [2]: 0.00461 µM [rising, full curve, poor fit]

Structure (SMILES): Cc1ccc(C(=O)NCCCN2CCOCC2)cc1N1CCCC1=O
- cell number change: 0.46%
- AC50 [2]: 2.06 µM [rising, partial curve, poor fit]

Structure (SMILES): COc1ccc(NC(=S)N(Cc2cccnc2)Cc2cc3cc(OC)c(OC)cc3[nH]c2=O)cc1
- cell number change: -8.11%
- AC50 [1]: 0.058 µM [rising, full curve, poor fit]

Structure (SMILES): Cc1[nH][nH]c(=O)c1C=NCc1cccs1
- cell number change: -29.5%
- AC50 [2]: 2.06 µM [falling, full curve, poor fit]
- AC50 [1]: 0.92 µM [falling, full curve, poor fit]

Structure (SMILES): CCN1C(=O)C2(C(C(=O)c3ccc(C)o3)=C(O)C(=O)N2CCCN2CCOCC2)c2ccccc21 (centres undefined)
- cell number change: -1.17%

Structure (SMILES): CCC(=O)N1CCc2cc(S(=O)(=O)NCCC(=O)NC3CCCCCC3)ccc21
- cell number change: 17.9%
- AC50 [1]: 29.1 µM [falling, single point]

Structure (SMILES): Cc1cc2ncc(-c3ccccc3)nc2cc1C
- cell number change: -29.9%
- AC50 [1]: 29.1 µM [falling, single point]

Structure (SMILES): CSc1ccc(S(=O)(=O)N2CCC(C(=O)NCc3ccco3)CC2)cc1
- cell number change: 19.2%
- AC50 [1]: 6.51 µM [rising, single point]

Structure (SMILES): COc1ccc(S(=O)(=O)Nc2cc(Cl)ccc2-n2cncn2)cc1
- cell number change: -13%

Structure (SMILES): Cc1ccc(OCc2cc(C(=O)NCc3cnn(-c4cccc(F)c4)c3)no2)cn1
- cell number change: -9.67%
